In paper doi:10.1101/2021.02.26.432832:
Positions count from the first letter of the chain named. These are yes or no findings as the source states them, for the method shown. Some binding calls cover weakened binding; strength is not graded here. Sequences can lack the tags named with a protein.

Sequences of proteins named here, by UniProt entry; tags and fusion partners are left off.
UniProt P38144: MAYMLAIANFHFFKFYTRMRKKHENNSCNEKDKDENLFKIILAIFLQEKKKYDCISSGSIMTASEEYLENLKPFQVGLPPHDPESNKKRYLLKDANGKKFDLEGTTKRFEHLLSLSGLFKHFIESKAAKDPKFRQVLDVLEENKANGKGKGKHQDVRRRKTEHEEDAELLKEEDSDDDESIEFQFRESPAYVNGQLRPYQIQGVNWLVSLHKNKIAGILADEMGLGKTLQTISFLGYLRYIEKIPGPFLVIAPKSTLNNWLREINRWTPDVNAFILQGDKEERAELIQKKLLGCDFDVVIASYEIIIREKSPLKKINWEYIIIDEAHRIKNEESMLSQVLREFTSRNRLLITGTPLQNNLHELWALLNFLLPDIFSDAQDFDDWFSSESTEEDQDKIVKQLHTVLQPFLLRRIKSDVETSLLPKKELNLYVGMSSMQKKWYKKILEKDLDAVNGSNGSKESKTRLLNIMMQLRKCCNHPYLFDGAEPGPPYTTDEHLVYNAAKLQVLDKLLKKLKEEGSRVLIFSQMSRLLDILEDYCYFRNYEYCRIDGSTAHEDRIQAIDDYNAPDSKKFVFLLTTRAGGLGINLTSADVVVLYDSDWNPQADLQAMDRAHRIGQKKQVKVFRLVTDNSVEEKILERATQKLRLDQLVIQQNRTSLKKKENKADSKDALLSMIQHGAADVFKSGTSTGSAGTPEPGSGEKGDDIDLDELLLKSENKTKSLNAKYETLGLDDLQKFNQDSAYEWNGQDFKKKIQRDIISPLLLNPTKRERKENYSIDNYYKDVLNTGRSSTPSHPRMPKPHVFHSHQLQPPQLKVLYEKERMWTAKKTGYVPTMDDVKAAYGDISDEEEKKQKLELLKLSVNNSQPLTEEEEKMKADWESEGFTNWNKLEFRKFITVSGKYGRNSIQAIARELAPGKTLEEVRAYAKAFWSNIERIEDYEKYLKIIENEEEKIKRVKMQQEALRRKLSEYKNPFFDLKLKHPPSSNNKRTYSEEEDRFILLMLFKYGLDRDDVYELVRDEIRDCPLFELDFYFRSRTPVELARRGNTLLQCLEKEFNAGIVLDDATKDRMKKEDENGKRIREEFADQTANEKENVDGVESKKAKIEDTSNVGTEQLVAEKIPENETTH

How the values were obtained:
Assay in all cases: tandem affinity purification
[1] = target: T1, TAP-tagged Ioc4 with the insertion motif deleted, in yeast (S. cerevisiae) (UniProt Q04213)
T1 sequence: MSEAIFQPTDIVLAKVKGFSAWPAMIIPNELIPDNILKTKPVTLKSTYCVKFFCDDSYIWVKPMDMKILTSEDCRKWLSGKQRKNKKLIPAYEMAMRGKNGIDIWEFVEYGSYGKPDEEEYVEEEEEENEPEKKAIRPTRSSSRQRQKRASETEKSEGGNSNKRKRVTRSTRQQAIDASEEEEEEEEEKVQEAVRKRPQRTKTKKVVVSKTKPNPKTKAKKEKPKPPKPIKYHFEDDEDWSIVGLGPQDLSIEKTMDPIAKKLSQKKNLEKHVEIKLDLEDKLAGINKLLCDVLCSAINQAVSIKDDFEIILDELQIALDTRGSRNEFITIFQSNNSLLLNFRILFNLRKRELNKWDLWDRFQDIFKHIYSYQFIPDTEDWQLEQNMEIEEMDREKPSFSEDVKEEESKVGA

[2] = target: T2, TAP-tagged Ioc4 DNA-binding mutant [change] [change], in yeast (S. cerevisiae) (UniProt Q04213)
T2 sequence: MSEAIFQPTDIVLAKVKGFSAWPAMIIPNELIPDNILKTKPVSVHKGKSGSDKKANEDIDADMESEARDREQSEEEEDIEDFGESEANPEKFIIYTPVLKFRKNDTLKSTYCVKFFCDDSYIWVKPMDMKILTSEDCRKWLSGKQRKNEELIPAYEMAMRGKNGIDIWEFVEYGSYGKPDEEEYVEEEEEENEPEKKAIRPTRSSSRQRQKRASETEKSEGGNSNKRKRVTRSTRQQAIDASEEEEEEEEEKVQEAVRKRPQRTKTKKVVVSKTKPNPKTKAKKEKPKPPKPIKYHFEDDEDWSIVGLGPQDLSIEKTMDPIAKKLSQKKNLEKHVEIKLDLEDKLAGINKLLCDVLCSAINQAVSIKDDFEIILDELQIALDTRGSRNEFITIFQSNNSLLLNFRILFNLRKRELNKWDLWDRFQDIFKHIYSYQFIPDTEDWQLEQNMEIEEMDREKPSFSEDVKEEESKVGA

[3] = target: T3, TAP-tagged wildtype Ioc4 in yeast (S. cerevisiae) (UniProt Q04213)
T3 sequence: T2 sequence with E149K, E150K

[4] = target: T4, TAP-tagged Ioc4 aromatic cage mutant [change], in yeast (S. cerevisiae) (UniProt Q04213)
T4 sequence: T2 sequence with W22A, E149K, E150K

[5] = target: T5, TAP-tagged Ioc4 with its PWWP domain deleted, in yeast (S. cerevisiae) (UniProt Q04213)
T5 sequence: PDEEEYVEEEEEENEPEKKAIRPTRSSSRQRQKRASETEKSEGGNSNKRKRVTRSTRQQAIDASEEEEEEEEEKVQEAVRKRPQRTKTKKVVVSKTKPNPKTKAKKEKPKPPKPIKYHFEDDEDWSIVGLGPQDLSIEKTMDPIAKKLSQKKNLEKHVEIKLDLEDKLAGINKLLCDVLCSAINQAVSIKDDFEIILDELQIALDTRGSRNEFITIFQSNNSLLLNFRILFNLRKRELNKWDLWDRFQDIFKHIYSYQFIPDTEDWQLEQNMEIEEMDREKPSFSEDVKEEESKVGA

Measured: binding

Isw1 (from UniProt P38144 1-1129) (enzyme)
binds: [1] | [2] | [3] | [4] | [5]
